No constants are given. Whether binding was seen depends on the method and setting. Binding seen in cells or lysates may run through a third protein. A result given as binding can be weak or reduced; the word gives no strength.
Tests used:
Experiment in all cases: split reporter; Split Luc complementation in living Cos7 cells transfected with ELucN-CK2β and ELucC-BMAL1 (WT or mutant) together with pcDNA, Myc-HA-CRY1, Myc-CRY2 or FLAG-CRY1 (WT or Cd1-4); real-time bioluminescence, averaged peak values
[1] = molecular target: ELucC-BMAL1 deletion mutant Bd1 (mouse) (UniProt Q9WTL8)
[2] = molecular target: ELucC-BMAL1 deletion mutant Bd2 (mouse) (UniProt Q9WTL8)
[3] = molecular target: ELucC-BMAL1 deletion mutant Bd3 (mouse) (UniProt Q9WTL8)

By UniProt entry, the sequences of proteins in these tests, tags left out. Where a name states a change or a piece, a line headed by the entry shows the natural chain unless it says otherwise.
UniProt Q9WTL8: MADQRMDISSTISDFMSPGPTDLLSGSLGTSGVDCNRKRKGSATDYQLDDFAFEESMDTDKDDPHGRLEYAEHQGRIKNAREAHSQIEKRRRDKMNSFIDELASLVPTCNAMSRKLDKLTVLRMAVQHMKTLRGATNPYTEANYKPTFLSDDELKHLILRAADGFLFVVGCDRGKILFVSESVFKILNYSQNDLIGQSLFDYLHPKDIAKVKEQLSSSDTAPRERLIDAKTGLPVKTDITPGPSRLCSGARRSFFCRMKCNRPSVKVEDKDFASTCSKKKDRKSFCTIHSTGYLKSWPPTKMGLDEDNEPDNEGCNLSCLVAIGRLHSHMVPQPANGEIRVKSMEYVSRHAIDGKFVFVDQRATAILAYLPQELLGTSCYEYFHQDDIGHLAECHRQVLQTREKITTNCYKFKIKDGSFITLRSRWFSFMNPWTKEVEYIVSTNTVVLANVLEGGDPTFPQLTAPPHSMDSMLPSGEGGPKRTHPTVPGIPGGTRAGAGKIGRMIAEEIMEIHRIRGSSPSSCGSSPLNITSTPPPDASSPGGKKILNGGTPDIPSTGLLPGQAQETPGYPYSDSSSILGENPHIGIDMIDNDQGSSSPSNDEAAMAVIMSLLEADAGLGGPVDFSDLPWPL
UniProt P67870: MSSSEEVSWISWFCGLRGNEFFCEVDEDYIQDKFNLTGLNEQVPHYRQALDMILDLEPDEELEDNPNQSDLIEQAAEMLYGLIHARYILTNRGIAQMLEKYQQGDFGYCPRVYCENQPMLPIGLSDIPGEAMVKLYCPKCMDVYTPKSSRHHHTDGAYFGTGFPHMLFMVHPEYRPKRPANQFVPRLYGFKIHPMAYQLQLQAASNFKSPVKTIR

Measured: binding

ELucN-CK2β (from UniProt P67870 1-215)
binds: all assays above

— publication PMC4642984
